Experimental data from PubChem BioAssay AID743255 (National Center for Advancing Translational Sciences (NCATS), 2014).
The campaign covered roughly 390,000 compounds. About 910 (0.23%) were called active. Inconclusive results, whose numbers are uncertain, are shown with a selection of clear calls. Calls follow the shape of the dose curve; as a rule, active = well fitted inhibition curve with a large enough effect; inconclusive = small, poorly fitted or top-dose-only effect; inactive = no such curve, though single readings can be large or run the other way. Potencies of inconclusive entries are doubtful fits and often do not repeat.

Protein sequences, listed by entry. Tags and fused reporters are not part of them. Lines headed by an entry give the natural chain unless they say otherwise; changes in a name come on top.
UniProt O94782: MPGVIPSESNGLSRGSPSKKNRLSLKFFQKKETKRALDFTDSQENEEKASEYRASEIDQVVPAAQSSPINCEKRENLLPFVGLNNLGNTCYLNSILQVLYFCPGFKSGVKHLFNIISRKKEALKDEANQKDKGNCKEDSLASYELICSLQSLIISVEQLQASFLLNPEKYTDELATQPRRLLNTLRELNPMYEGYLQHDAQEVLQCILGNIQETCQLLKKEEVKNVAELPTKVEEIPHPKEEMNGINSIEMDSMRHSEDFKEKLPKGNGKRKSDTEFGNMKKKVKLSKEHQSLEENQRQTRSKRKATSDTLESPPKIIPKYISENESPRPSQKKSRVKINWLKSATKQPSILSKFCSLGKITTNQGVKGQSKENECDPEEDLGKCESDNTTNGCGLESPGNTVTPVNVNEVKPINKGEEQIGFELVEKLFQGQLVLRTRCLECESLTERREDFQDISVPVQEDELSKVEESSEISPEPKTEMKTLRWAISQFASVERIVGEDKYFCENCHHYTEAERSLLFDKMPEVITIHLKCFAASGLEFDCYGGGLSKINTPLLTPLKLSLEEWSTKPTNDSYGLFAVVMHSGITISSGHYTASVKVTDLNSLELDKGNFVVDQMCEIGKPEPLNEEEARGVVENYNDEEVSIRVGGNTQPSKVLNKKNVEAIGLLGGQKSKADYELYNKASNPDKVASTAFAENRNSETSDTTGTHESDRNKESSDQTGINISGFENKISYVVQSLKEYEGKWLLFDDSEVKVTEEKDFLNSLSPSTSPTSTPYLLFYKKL

Target: Ubiquitin carboxyl-terminal hydrolase 1 (Homo sapiens) (UniProt O94782)
Assay: Inhibitors of USP1/UAF1: Primary Screen; also: nearly all actives have a fitted effect of over 60% in size
Details: recombinant USP1/UAF1, Ub-Rhodamine cleavage fluorescence; activity change, negative = inhibition: at 57.1 µM (top of the series)
Method in brief: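 High-throughput fluorogenic screen: 1nM USP1/UAF1 complex, Ub-Rho substrate 150nM final, 50mM HEPES pH 7.8 with 0.5mM EDTA, 0.1 mg/ml BSA, 1mM TCEP and 0.01% Tween-20.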
% is scaled to controls: 0 for no effect and ±100 for the full control effect; potency is read from the fitted curve at half-maximal effect.

| SMILES | Potency | activity change, negative = inhibition |
| --- | --- | --- |
| O=C(c1cnc(N2CCCCC2)c2ccccc12)N1CCN(c2ccc(Cl)cc2)CC1 | inconclusive: 0.112 µM [inhibitor, full curve] | – |
| CCOC(=O)c1c(C)n(C)c2ccc(OCC(O)CN3CCN(C)CC3)cc12 (stereo not drawn) | inconclusive: 1.12 µM [inhibitor, full curve, poor fit] | – |
| COc1ccccc1-n1c(CNC(=O)COc2ccccc2)n[nH]c1=S | inconclusive: 25.1 µM [inhibitor, single point] | – |
| CC(C)C(=O)Nc1cccc(NC(=O)CCN2C(=O)c3ccccc3S2(=O)=O)c1 | inconclusive: 1.12 µM [inhibitor, full curve, poor fit] | – |
| Cc1cccc([C@@H]2[C@@H]3C(=O)N(Cc4ccccc4)C(=O)[C@@H]3[C@]3(C)C(=O)N(c4cccc(F)c4)C(=O)N23)c1 | inconclusive: 1.41 µM [inhibitor, full curve, poor fit] | – |
| CC(C)(C)OC(=O)[C@H](Cc1ccccc1)NC(=O)c1nc[nH]c1C(=O)NCc1ccccc1 | inconclusive: 2.82 µM [inhibitor, full curve] | – |
| CCn1c(O)c(N=Nc2ccc3ccccc3n2)c2ccccc21 | inconclusive: 35.5 µM [inhibitor, partial curve, poor fit] | – |
| O=C(c1cccn1-c1nnc(N2CCCCC2)s1)N1CCN(c2ccccc2)CC1 | inconclusive: 0.794 µM [inhibitor, full curve] | – |
| Clc1cccc(CSc2ccc(-c3cccs3)nn2)c1 | inconclusive: 112 µM [inhibitor, partial curve] | – |
| CCNC(=O)C1CCN(Cc2cc3ccccc3n2Cc2ccc(C)cc2)CC1 | inconclusive: 31.6 µM [inhibitor, partial curve] | – |
| N#CC(C#N)=C1c2cc(S(=O)(=O)NCCO)ccc2-c2ccc(S(=O)(=O)NCCO)cc21 | inconclusive: 39.8 µM [inhibitor, partial curve] | – |
| Cn1c(=O)c2nc(-c3ccc(Cl)cc3Cl)oc2c2ccccc21 | inconclusive: 8.91 µM [inhibitor, partial curve] | – |
| Cc1cc([N+](=O)[O-])ccc1NCc1cccc2ccccc12 | inconclusive: 5.01 µM [inhibitor, partial curve] | – |
| Cc1cccn2c(=O)c3cc(C(=O)NCCCN4CCCC4=O)n(C)c3nc12 | inconclusive: 39.8 µM [inhibitor, single point] | – |
| O=[N+]([O-])c1cccc(N(CC(O)CN2CCCC2)S(=O)(=O)c2ccccc2)c1 (stereo not drawn) | inconclusive: 50.1 µM [inhibitor, partial curve, poor fit] | – |
| O=C(c1cnc(N2CCCCC2)c2ccccc12)N1CCN(c2cccc(Cl)c2)CC1 | inconclusive: 31.6 µM [inhibitor, partial curve] | – |
| COc1cccc2cc(C(=O)C3=C(O)C(=O)N(CCN4CCOCC4)C3c3ccc(C)o3)oc12 (stereo not drawn) | inconclusive: 44.7 µM [inhibitor, partial curve] | – |
| COc1c(C)cc(Br)cc1C(=O)Nc1cccc(-c2nc3ncccc3o2)c1 | inconclusive: 31.6 µM [inhibitor, partial curve] | – |
| O=C(NCc1cccs1)c1ccc(S(=O)(=O)N2CCCCC2)cc1 | – | inactive: -9.51% |

Reprinted at random: 2 records from the list

| SMILES | Potency | activity change, negative = inhibition |
| --- | --- | --- |
| N#CC(C#N)=C1c2cc(S(=O)(=O)NCCO)ccc2-c2ccc(S(=O)(=O)NCCO)cc21 | inconclusive: 39.8 µM [inhibitor, partial curve] | – |
| O=C(NCc1cccs1)c1ccc(S(=O)(=O)N2CCCCC2)cc1 | – | inactive: -9.51% |

(cont.)

| SMILES | Potency | activity change, negative = inhibition |
| --- | --- | --- |
| CCc1nc2ccc(C(=O)NCc3cccc(Br)c3)cc2nc1CC | inconclusive: 7.94 µM [inhibitor, partial curve] | – |
| Cc1ccc(C)c(NC(=O)C(OC(=O)c2ccc(NC(=O)CC#N)cc2)c2ccccc2)c1 (stereo not drawn) | – | inactive: -21.2% |
| CCc1cccc(NC(=O)CN(c2ccc(C)cc2)S(=O)(=O)c2cccs2)c1 | inconclusive: 6.31 µM [inhibitor, partial curve] | – |
| O=C(NCc1ccc(F)cc1)c1cnn2ccccc12 | inconclusive: 7.08 µM [inhibitor, single point] | – |
| COc1cccc(C(=O)NCCc2csc(-c3cccc(F)c3)n2)c1OC | inconclusive: 50.1 µM [inhibitor, partial curve, poor fit] | – |
| Cc1cc(C(=O)Nc2ccc(C(=O)O)cc2)c(C)o1 | inconclusive: 7.94 µM [inhibitor, single point] | – |
| Cc1ccc(C(=O)N2CCc3cc(CNC(=O)CCc4ccccc4)ccc32)cc1 | inconclusive: 50.1 µM [inhibitor, partial curve, poor fit] | – |
| O=c1c2cc(C(F)(F)F)ccc2sn1-c1ccccc1 | inconclusive: 0.282 µM [inhibitor, full curve] | – |
| CCOc1ccccc1NC(=O)CCc1c(C)nc2c3cccnc3nn2c1C | – | inactive: -21.7% |
| COc1ccc(S(=O)(=O)N2CCC(C(=O)N3CCc4ccccc4C3)CC2)cc1Cl | inconclusive: 35.5 µM [inhibitor, partial curve, poor fit] | – |
| COc1ccc(Cl)cc1C1CC(=O)Nc2cc3c(cc21)OCCO3 (stereo not drawn) | inconclusive: 15.8 µM [inhibitor, partial curve, poor fit] | – |
| CCCCNc1sc(S(=O)(=O)CCC)nc1S(=O)(=O)c1ccc(C)cc1 | inconclusive: 4.47 µM [inhibitor, single point] | – |
| CNC[C@@H]1Oc2ccc(NS(=O)(=O)c3ccc(Cl)cc3)cc2C(=O)N([C@H](C)CO)C[C@@H]1C | inconclusive: 44.7 µM [inhibitor, partial curve, poor fit] | – |
| COc1ccc(C2NCCCC2c2ccccc2)cc1 (stereo not drawn) | inconclusive: 44.7 µM [inhibitor, partial curve, poor fit] | – |
| O=C(CSc1nc2c([nH]c3ccccc32)c(=O)n1-c1ccccc1)N1CCOCC1 | inconclusive: 50.1 µM [inhibitor, partial curve, poor fit] | – |
| CCOc1ccc(/C=C(/C#N)c2nnc(N3CCOCC3)n2-c2ccccc2)cc1OC | inconclusive: 28.2 µM [inhibitor, single point] | – |
| COc1ccc(CC(=O)Nc2ccc(S(=O)(=O)N3CCCC3)cc2)cc1OC | – | inactive: -4.79% |
| c1ccc(Cc2nc3ccccc3s2)cc1 | inconclusive: 11.2 µM [inhibitor, partial curve] | – |
| O=c1[nH]c(CN2CCCCC2)ccc1O | inconclusive: 7.94 µM [inhibitor, partial curve] | – |
